PubChem BioAssay AID1259424, University of Nebraska Medical Center – 2018

Test: 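Find knockdowns that reproduce the expression shifts seen after KSR1 loss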 (primary screen)
Cells: human HCT116 colon cancer cells
Knock-down reagent: siRNA pool against human genes, 50 nM
Measurement: 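Six signature mRNAs by branched-DNA multiplex assay, scaled to two housekeeping genes and non-targeting median, log2; matched to mean KSR1 knockdown profile by Pearson correlation and euclidean distance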
Reading the numbers: mean correlation with KSR1 profile: higher = expression change more like KSR1 knockdown
Here is a random part of about 14,000 reagents tested. 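Higher correlation or smaller distance means closer resemblance to KSR1 loss; control wells, including KSR1 knockdowns, recur on many plates.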 Further read-outs or replicates are left out here. No sequences are given here. The record does not give: the time to read-out.

The first 3 entries as a preview:
DMXL2 | mean correlation with KSR1 profile = -0.921
SGPP1 | mean correlation with KSR1 profile = 0.473
DISC1 | mean correlation with KSR1 profile = -0.247

The list itself, from the first entry:
DMXL2 | mean correlation with KSR1 profile = -0.921
SGPP1 | mean correlation with KSR1 profile = 0.473
DISC1 | mean correlation with KSR1 profile = -0.247
ARMCX3 | mean correlation with KSR1 profile = -0.48
SLC4A1AP | mean correlation with KSR1 profile = 0.177
HLA-DPB1 | mean correlation with KSR1 profile = -0.166
CCNT2 | mean correlation with KSR1 profile = 0.303
TEC | mean correlation with KSR1 profile = 0.673
OR1J4 | mean correlation with KSR1 profile = -0.574
BNC1 | mean correlation with KSR1 profile = 0.533
ROGDI | mean correlation with KSR1 profile = -0.0591
MMP20 | mean correlation with KSR1 profile = -0.273
CSTA | mean correlation with KSR1 profile = 0.0808
MAP3K6 | mean correlation with KSR1 profile = 0.618
PRRG3 | mean correlation with KSR1 profile = -0.473
PI4KA | mean correlation with KSR1 profile = 0.804
SEC63 | mean correlation with KSR1 profile = -0.377
GATA2 | mean correlation with KSR1 profile = 0.335
MLLT1 | mean correlation with KSR1 profile = -0.693
MFAP2 | mean correlation with KSR1 profile = 0.105
NAB1 | mean correlation with KSR1 profile = -0.654
GNA12 | mean correlation with KSR1 profile = -0.153
MCHR1 | mean correlation with KSR1 profile = 0.361
PEA15 | mean correlation with KSR1 profile = -0.321
DOHH | mean correlation with KSR1 profile = 0.61
B3GAT1 | mean correlation with KSR1 profile = 0.0384
ACP1 | mean correlation with KSR1 profile = 0.12
CTSA | mean correlation with KSR1 profile = -0.282
ATP9A | mean correlation with KSR1 profile = 0.414
UBL7 | mean correlation with KSR1 profile = 0.0886
CXCR3 | mean correlation with KSR1 profile = -0.203
EBPL | mean correlation with KSR1 profile = 0.759
RNPEPL1 | mean correlation with KSR1 profile = -0.576
MS4A2 | mean correlation with KSR1 profile = 0.691
DDX39B | mean correlation with KSR1 profile = -0.219
CD8A | mean correlation with KSR1 profile = -0.309
